Experimental data published in the supplement of paper PMC3334620.
Whole data set: some 33,000 sequences, median “E-score (-0.5 to 0.5)” near -0.0059, cut for the highest 2% near 0.26. The list shows a part of the results.

biological target: T1, Cin5 (UniProt P40917); experiment: PBM E-score (8-mer binding enrichment) (E-score (-0.5 to 0.5)); higher = stronger / more preferred TF binding; settings: protein concentration: 100 nM; construct: GST-full length
T1 sequence: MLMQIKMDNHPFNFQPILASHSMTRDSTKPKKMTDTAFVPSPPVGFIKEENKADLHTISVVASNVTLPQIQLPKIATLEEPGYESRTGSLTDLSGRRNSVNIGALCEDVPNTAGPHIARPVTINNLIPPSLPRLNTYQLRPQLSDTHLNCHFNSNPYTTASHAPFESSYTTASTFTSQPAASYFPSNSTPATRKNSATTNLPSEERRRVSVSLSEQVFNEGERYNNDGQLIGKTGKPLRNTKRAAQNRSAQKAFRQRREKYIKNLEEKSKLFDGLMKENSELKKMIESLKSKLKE
Procedure, shortened: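 Bound GST-tagged yeast transcription factors, applied at about 100-200 nM to double-stranded universal all-10-mer Agilent arrays, were detected with fluorescent anti-GST. Scans were normalised with masliner. A modified Wilcoxon-Mann-Whitney statistic, the E-score, was assigned to each ungapped eight-base word pooled with its reverse complement by the Universal PBM Analysis Suite.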

| Sequence | PBM E-score |
| --- | --- |
| CTGGTCTC | -0.224 |
| GAACTGAC | -0.0717 |
| GCAACCAC | 0.0219 |
| ACGTTGCC | -0.112 |
| ACCCATTG | -0.0482 |
| CATTAGAC | -0.297 |
| GAGGGGTA | -0.105 |
| GCTCATGA | -0.0154 |
| AGAGCGAA | 0.119 |
| AGCGAGTA | 0.146 |
| GATCTCAA | 0.112 |
| ACTGGCAC | -0.152 |
| CTGAGACC | -0.238 |
| GGATGGCC | -0.296 |
| AGTGCCAA | -0.239 |
| GGGTTTAC | 0.0632 |
| TATAAATA | 0.283 |
| ATACCTAA | 0.286 |
| ATACGCCG | -0.0917 |
| AAAGCACA | 0.0512 |
| AACCTGCA | 0.0994 |
| GGTTACAA | 0.0628 |
| AATACATA | 0.278 |
| AACGGGCG | -0.00237 |
| AAACTAGC | -0.0623 |

| Sequence | PBM E-score |
| --- | --- |
| GGATAAAC | 0.135 |
| CCCCGTGA | -0.0426 |
| CGCAGGTC | -0.2 |
| GAGAATAA | 0.208 |
| AAGAAATC | 0.00777 |
| AGTTCGAT | 0.106 |
| AATGGGGG | -0.39 |
| AACTCCGT | 0.0562 |
| AAGAAAGC | -0.0256 |
| ACAGCCAT | 0.0862 |
| ACAACACA | 0.123 |
| CAACCGAA | 0.147 |
| GCGGGTAC | -0.0523 |
| ACGGTAAG | 0.0671 |
| AGAATGGC | 0.0927 |
| AGGCAACT | 0.146 |
| TATCCTCA | 0.0763 |
| AAGGGACC | -0.0753 |
| AACGAAAT | 0.237 |
| AACTGTAT | 0.003 |
| CCTCATAG | -0.0586 |
| CCAGGAAG | -0.147 |
| GCTAGTAC | -0.0928 |
| TCATCGCA | -0.0628 |
| AATAGTGA | 0.0837 |

| Sequence | PBM E-score |
| --- | --- |
| AGCACGTG | -0.0463 |
| AGGGAGTG | -0.276 |
| AGAGGCAG | -0.163 |
| ACTAGCCC | -0.101 |
| AATGCGTC | -0.0875 |
| CGGCTACC | -0.0686 |
| AGAGCCTC | -0.271 |
| CTGGCTCC | -0.287 |
| CAGAGATA | 0.142 |
| ACGGGAAG | -0.108 |
| GTTCCTTA | -0.0426 |
| CAGAGTAA | -0.0253 |
| GATCGCGA | 0.113 |
| TACGGAGA | -0.028 |
| CTGTACAA | 0.0657 |
| TGACGAAA | 0.099 |
| CCGGTAAG | 0.00312 |
| GCGCTCTA | -0.114 |
| TAACGCGA | 0.061 |
| GGTTTCGA | 0.0244 |
| ATGGGGAG | -0.00551 |
| TATCTAAA | 0.0519 |
| AGATTGTA | 0.156 |
| AAAAAGCC | 0.11 |
| TACACGGA | 0.158 |

Four entries picked at random from those above, as already listed:

| Sequence | PBM E-score |
| --- | --- |
| CCAGGAAG | -0.147 |
| AGGCAACT | 0.146 |
| GATCGCGA | 0.113 |
| AGTTCGAT | 0.106 |

The listing continues:

| Sequence | PBM E-score |
| --- | --- |
| GCCACAGC | -0.105 |
| ATCTGTAG | -0.106 |
| AACTCAAA | 0.163 |
| AAGCGACG | -0.149 |
| CAGGGCAC | -0.0408 |
| GCAGTACC | -0.0675 |
| AGTAATAG | 0.279 |
| CTCGACTA | -0.104 |
| CGATGGCC | -0.0987 |
| AGGGGCCA | -0.0617 |
| CGTAAGCC | 0.39 |
| GTAGGTGA | -0.0618 |
| TCAGATGA | 0.131 |
| CCCACTAG | -0.177 |
| GTGAGCTA | 0.0179 |
| CACATCGC | -0.06 |
| AAAACGTC | 0.0526 |
| AAAGCCAC | -0.0749 |
| AGGCCCGC | 0.0122 |
| GTCAAAAC | 0.0876 |
| GATAGTAA | 0.195 |
| TATGTACA | 0.18 |
| ACTGCCTC | 0.0135 |
| CAAGACCG | -0.11 |
| CTCTGAAG | -0.265 |

| Sequence | PBM E-score |
| --- | --- |
| CATGAGAC | -0.0853 |
| ATCATCCA | 0.217 |
| AACCGTCT | -0.303 |
| TGGCCTAA | -0.0968 |
| TGCATCAA | 0.153 |
| ATATAAAG | 0.137 |
| GGCGCATA | 0.102 |
| TGACTGCA | -0.134 |
| CTGGAGAC | -0.0883 |
| AAAGGACG | -0.0147 |
| AAAAATTG | -0.0306 |
| CGACATAG | 0.00383 |
| TGGCATAA | 0.221 |
| CGTACGCA | -0.0964 |
| TCCTGCAA | 0.00323 |
| GGGGCGAC | -0.0471 |
| AACCATTC | -0.0296 |
| ACATCGCC | 0.113 |
| CAATGCCA | 0.0656 |
| CGTTCTTA | 0.0141 |
| CGCCATAC | -0.0043 |
| AGTTTTAT | 0.149 |
| CCGAAGTA | 0.079 |
| TAGAAGAA | -0.158 |
| AATCAACT | 0.17 |

| Sequence | PBM E-score |
| --- | --- |
| CAAATAAC | 0.247 |
| ACTGTGCT | -0.0523 |
| AGACCCGG | -0.0715 |
| CGGTGAGA | 0.121 |
| ACCCGAGA | 0.0718 |
| CAATACAC | 0.00745 |
| CACTGGCG | -0.0347 |
| GGGCCTAC | -0.301 |
| ATGTCCCG | 0.0449 |
| GCACCACC | -0.0982 |
| CCTACAAA | -0.0136 |
| GCCGTAGC | -0.187 |
| CGTCAGAG | 0.00218 |
| GTGTTACA | -0.0531 |
| GACGACAA | 0.25 |
| AAACGCTA | -0.192 |
| AGGCGATA | -0.024 |
| AGCCGCCA | -0.254 |
| TCACGGAA | 0.205 |
| AAGCATCC | -0.078 |
| CGGGCTCA | -0.312 |
| CTATTAAG | -0.041 |
| CGGAGACC | -0.167 |
| CTGACAGA | 0.125 |
| AACCACAC | 0.136 |

| Sequence | PBM E-score |
| --- | --- |
| TATCAATA | 0.0764 |
| AGTAAAAT | 0.0398 |
| ATTGGAAA | 0.0806 |
| GCCTAACA | -0.00038 |
| GTACCTTA | 0.0338 |
| CAATGCAA | 0.0944 |
| ATGATACC | 0.0985 |
| AACGCTGC | -0.0849 |
| AGGGAGAT | -0.252 |
| AAGTGAAC | 0.0529 |
| CAAATGTG | 0.146 |
| ACAAAAGC | 0.101 |
| GTGCTCCA | -0.145 |
| GCACACAA | 0.117 |
| AAGTGTCA | -0.1 |
| GCTCGTAA | 0.0314 |
| ACTCGGCA | 0.0653 |
| GCCACTAA | -0.0361 |
| AATCCAAG | 0.155 |
| TACCTATA | 0.0396 |
| TCCGGACA | 0.0244 |
| AAGTAAAA | 0.0101 |
